Here are results for 4 substances from publication PMC1513213.

These are yes or no findings as the source states them, for the method shown. In cells and extracts the contact can be indirect. Binding calls can cover weak binding; strength is not graded here. Sequences can lack the tags named with a protein.

For this assay, the target named is T1, LET-756::GFP (C. elegans) (UniProt Q11184).
T1 sequence: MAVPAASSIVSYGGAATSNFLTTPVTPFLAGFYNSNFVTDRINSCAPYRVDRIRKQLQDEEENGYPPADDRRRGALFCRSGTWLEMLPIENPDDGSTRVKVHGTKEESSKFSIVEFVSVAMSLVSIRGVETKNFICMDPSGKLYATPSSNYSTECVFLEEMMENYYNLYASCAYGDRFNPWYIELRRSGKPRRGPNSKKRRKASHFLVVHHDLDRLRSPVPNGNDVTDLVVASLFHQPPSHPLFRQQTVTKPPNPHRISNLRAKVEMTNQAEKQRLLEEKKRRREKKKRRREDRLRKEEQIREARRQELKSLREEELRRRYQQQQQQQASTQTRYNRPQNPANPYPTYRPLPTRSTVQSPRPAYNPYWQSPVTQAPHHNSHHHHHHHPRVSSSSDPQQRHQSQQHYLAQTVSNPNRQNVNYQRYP
In words: co-IP; Cos-1 cells cotransfected with HA-tagged partner and LET-756::GFP, lysed 24 h later in triton buffer (10 mM Tris pH 7.4, 100 mM NaCl, 2.5 mM MgCl2, 1% triton, 1 mM EDTA, 10 mM DTT); immunoprecipitated with anti-GFP, blot with anti-HA then anti-GFP.
As for HA-tagged C15C6.2 (C. elegans), the binding entry is listed as “binds”. Consider HA-tagged COL-129 (C. elegans), for which the binding entry is recorded as “binds”. Turning to “HA-tagged KIN-10 (from UniProt P28548-2)”, the binding entry is recorded as “binds”. In the case of HA-tagged SKR-2 (C. elegans), the binding result is “binds”.
